In patent publication US20160031951A1:
These are yes or no findings as the source states them, for the method shown. Some results given as binding are weak or reduced against the parent protein; the word gives no strength.

Amino acid sequences for entries named in this document (tags omitted).
UniProt O95477: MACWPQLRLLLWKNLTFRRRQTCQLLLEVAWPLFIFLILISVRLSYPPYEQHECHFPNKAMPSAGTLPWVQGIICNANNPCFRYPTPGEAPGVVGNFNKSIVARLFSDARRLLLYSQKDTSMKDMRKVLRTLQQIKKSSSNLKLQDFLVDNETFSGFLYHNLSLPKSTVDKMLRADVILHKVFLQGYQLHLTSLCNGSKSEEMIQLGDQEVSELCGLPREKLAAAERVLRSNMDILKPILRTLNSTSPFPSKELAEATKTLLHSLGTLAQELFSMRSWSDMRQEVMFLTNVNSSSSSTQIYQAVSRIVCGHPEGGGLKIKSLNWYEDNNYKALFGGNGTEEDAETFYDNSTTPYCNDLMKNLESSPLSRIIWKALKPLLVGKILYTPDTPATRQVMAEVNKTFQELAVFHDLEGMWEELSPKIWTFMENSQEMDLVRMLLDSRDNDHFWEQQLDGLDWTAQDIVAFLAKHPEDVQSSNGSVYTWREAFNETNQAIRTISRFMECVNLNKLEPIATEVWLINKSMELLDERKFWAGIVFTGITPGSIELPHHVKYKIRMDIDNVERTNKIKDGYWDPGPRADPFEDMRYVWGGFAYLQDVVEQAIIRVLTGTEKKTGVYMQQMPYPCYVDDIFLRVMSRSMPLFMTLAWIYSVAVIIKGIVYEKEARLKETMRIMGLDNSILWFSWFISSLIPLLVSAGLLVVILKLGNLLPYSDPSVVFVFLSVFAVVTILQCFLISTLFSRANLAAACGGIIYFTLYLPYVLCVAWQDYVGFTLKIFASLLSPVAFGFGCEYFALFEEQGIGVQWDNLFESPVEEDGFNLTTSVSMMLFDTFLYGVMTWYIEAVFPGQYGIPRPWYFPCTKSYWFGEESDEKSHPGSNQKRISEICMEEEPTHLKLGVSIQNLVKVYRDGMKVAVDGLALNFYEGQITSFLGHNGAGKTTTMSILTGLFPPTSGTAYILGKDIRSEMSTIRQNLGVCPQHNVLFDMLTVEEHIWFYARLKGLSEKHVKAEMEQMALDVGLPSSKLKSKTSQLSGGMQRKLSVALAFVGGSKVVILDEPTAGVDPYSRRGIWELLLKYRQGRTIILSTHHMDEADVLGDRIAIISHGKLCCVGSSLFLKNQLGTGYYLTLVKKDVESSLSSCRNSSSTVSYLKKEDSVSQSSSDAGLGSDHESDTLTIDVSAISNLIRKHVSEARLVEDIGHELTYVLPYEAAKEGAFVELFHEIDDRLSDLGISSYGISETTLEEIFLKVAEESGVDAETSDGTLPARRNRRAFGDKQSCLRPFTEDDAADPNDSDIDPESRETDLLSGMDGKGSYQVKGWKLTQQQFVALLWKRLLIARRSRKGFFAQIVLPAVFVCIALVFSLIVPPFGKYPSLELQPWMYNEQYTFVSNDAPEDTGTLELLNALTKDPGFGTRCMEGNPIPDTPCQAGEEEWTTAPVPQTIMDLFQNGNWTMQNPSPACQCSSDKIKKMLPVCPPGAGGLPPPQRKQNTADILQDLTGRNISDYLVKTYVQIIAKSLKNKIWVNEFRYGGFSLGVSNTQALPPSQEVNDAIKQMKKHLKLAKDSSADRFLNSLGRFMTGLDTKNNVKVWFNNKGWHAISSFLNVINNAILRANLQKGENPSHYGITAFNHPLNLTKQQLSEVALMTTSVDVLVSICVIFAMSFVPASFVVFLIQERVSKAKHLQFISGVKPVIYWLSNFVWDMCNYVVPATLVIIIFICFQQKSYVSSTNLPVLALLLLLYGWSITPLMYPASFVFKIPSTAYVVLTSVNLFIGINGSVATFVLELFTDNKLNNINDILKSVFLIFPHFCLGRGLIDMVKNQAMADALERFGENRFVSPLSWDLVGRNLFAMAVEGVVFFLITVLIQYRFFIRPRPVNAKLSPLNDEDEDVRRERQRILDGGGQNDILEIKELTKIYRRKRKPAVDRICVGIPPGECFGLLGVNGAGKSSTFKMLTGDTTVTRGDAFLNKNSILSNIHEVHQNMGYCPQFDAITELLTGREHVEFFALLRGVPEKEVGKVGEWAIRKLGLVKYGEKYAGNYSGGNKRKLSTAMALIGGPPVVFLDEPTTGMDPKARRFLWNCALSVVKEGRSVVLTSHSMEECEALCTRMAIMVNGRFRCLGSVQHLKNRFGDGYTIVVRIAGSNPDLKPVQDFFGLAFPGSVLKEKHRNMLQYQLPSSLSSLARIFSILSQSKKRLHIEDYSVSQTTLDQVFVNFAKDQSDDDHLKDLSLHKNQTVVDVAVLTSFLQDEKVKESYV

Target: ABCA1 on BHK cells stably transfected with ABCA1 (UniProt O95477)
Test: crosslinking assay and western blot with antibodies to peptide or apoA-I; BHK cells stably transfected with ABCA1

## EVRSKLEEWFAAFREFAEEFLARLKS [ATI-5261]
  binding: binds
